In patent US10023882B1, “Hetero-oligomers of (S)-carbonyl reductases and their applications in catalyzing reduction of polyphenyl ketones” (Jiangnan University, priority 2017, dated 2018) one finds binding data, which are given here for 2 molecules.

These are yes or no findings as the source states them, for the method shown. Binding seen in cells or lysates may run through a third protein. Some entries that bind do so weakly or less than the wild type. Tags and fused reporters may be left off the sequences shown.

Assay [1] deals with T1, His-SCR2, (S)-carbonyl reductase SCR2 of Candida parapsilosis with N-terminal His-tag, expressed from pET28-His-SCR2 (Candida parapsilosis) (UniProt G8BHG4).
T1 sequence: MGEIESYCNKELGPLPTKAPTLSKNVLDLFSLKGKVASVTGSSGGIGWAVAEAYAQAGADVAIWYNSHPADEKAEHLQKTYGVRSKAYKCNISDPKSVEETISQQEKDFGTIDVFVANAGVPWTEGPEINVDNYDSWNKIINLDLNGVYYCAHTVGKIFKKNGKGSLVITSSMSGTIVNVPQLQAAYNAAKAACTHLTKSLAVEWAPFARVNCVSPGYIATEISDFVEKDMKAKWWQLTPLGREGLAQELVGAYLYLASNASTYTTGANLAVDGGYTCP
Nature of the assay: tandem affinity purification: Ni-NTA eluate (His-tag) loaded on Streptrap HP column (Strep-tag), co-purification.

Assay [2] deals with T1, His-SCR2, (S)-carbonyl reductase SCR2 of Candida parapsilosis with N-terminal His-tag, expressed from pET28-His-SCR2 (Candida parapsilosis). The experiment in a line: pull-down by two affinity tags after co-expression in E. coli.
For assay [3], the target named is T2, His-SCR3, (S)-carbonyl reductase SCR3 of Candida parapsilosis with N-terminal His-tag, expressed from pET28-His-SCR3 (Candida parapsilosis) (UniProt G8BHG5).
T2 sequence: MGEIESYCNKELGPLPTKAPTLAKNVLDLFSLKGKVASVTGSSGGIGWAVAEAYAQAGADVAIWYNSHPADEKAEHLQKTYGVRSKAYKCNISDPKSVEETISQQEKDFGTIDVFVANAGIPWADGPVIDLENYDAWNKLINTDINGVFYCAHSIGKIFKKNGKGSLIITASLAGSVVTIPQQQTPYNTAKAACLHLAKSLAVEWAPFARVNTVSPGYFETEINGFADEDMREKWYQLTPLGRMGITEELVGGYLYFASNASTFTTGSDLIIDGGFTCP
The experiment in a line: tandem affinity purification: Ni-NTA eluate (His-tag) loaded on Streptrap HP column (Strep-tag), co-purification.

Assay [4] has as its target T2, His-SCR3, (S)-carbonyl reductase SCR3 of Candida parapsilosis with N-terminal His-tag, expressed from pET28-His-SCR3 (Candida parapsilosis). The experiment in a line: pull-down by two affinity tags after co-expression in E. coli.

B1: Strep-SCR, (S)-carbonyl reductase SCR of Candida parapsilosis with N-terminal Strep-tag, expressed from pET21-Strep-SCR (protein)
chain: MGEIESYCNKELGPLPTKAPTLSKNVLDLFSLKGKVASVTGSSGGIGWAVAEAYAQAGADVAIWYNSHPADEKAEHLQKTYGVHSKAYKCNISDPKSVEETISQQEKDFGTIDVFVANAGVTWTQGPEIDVDNYDSWNKIISVDLNGVYYCSHNIGKIFKKNGKGSLIITSSISGKIVNIPQLQAPYNTAKAACTHLAKSLAIEWAPFARVNTISPGYIDTDITDFASKDMKAKWWQLTPLGREGLTQELVGGYLYLASNASTFTTGSDVVIDGGYTCP
As for B1, the binding result in assay [1] and in assay [2] was “binds” in each case.

B2: Strep-SCR2, (S)-carbonyl reductase SCR2 of Candida parapsilosis with N-terminal Strep-tag, expressed from pET21-Strep-SCR2 (protein)
chain: T1 sequence
Regarding B2, the binding result in assay [3] and in assay [4] was “binds” each time.
